According to US10041105B2, “Methods and devices for detection of resistance to an enzyme inhibitor” (priority 2014, dated 2018):
Several values for one entry are separate records, joined by “and”; a condition that tells them apart may be missing. Identical values can stand only once. Like-named read-outs stand apart in the source and are kept apart here. At least one compound was matched to its structure with a doubt left.

Sequences of proteins named here, by UniProt entry; tags and fusion partners are left off. Residues count along the entry.
UniProt P0A9Z7, 22-286: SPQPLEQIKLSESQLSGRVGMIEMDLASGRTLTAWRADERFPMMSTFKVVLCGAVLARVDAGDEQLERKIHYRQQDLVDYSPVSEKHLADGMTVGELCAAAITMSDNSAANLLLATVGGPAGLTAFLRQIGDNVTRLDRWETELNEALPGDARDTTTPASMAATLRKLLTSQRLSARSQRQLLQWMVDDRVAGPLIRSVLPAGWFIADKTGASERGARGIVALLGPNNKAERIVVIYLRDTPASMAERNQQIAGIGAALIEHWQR
UniProt P05364, 21-381: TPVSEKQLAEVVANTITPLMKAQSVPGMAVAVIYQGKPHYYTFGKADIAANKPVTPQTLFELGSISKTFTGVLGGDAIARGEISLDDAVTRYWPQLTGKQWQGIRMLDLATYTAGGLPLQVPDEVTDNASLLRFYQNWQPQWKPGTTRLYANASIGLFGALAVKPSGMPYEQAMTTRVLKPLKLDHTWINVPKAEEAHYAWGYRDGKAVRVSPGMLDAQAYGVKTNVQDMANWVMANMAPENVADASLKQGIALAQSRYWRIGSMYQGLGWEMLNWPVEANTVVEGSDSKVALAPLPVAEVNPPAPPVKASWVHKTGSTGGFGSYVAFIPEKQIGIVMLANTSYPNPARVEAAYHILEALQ

What was measured:
[1] = tested on: SHV-2 beta lactamase (Escherichia coli); type: biochemical; conditions: 64 micrograms/mL in 2× mix; lysate dilution 1:10
Description: (§1) The reagent mix was prepared as a 2× concentrated solution. The 2× concentrated reagent mix contained 50 mM HEPES (pH 7.0 to 7.2), 0.2 mM ZnCl2, 8 mM ATP, 10 mM DTT, 0.1 mM Coenzyme A, 5 micrograms/mL luciferase, 0.01 mM Cephalosporin-O-Luciferin, 0.1 mg/mL BSA, 8 mM CaCl2, 30 mM MgCl2, and 1% Triton X-100. Cephalosporin-O-Luciferin was used as a beta lactamase substrate. This substrate was synthesized and purified according to a procedure published in a scientific article (Angew. Chem. Int. Ed. 2007 Vol. 46, pp. 7031-7034), which is cited here solely as a reference.
(§2) Genes encoding five species of beta lactamase were synthesized and cloned into an E. coli expression vector. The E. coli cells transformed with the expression vector containing the gene encoding a beta lactamase was induced to express the enzyme. The cells were then pelleted, suspended in a sample buffer (Fisher Scientific Cat. No. 90084) and sonicated to lyse the cells.
(§3) 2× concentrated reagent mixes were prepared. The 2× reagent mix without a beta lactamase inhibitor or antibiotic (Reagent Mix I) was prepared according to the composition provided in Example 6. The 2× concentrated reagent mix containing a beta lactamase inhibitor or imipenem (Reagent Mix IIb) was prepared by supplementing the Reagent Mix I with 64 micrograms/mL of clavulanate (Reagent Mix IIa) or 64 micrograms/mL of imipenem (Reagent Mix IIb).
(§4) Reactions were carried out by diluting 50 microliters of 2× reagent mixes into 45 microliters of deionized water, followed by addition of 5 microliters of cell lysate. […] Light signal was measured using a luminometer after 15 min incubation at room temperature. The signal in Reagent Mix I was used to detect the presence of beta lactamase in the sample by comparing the signal in the reaction to that of negative controls while the signal ratio was used to determine the resistance of the beta lactamase to clavulanate or imipenem.
(§5) In this example, the signal ratios were expressed as R-Factor values, which were calculated as follows: R-Factor=10×(Reagent Mix II Signal÷Reagent Mix I Signal)

SHV-2 beta lactamase = SHV-2 beta lactamase (Escherichia coli, UniProt P0A9Z7); type: biochemical
Description: as §1, §2, §3, §4, §5

p99 beta lactamase = p99 beta lactamase (Enterobacter cloacae, UniProt P05364); type: biochemical
Description: as §1, §2, §3, §4, §5

[2] = biological target: New Deli Metallo-beta lactamase (NDM-2) (Klebsiella pneumoniae, UniProt C7C422, P28A); assay: Beta lactamase luminescent assay with inhibitor reagent mixes; type: biochemical
Description: as §1, §2, §3, §4, §5

TEM-2 beta lactamase = TEM-2 beta lactamase (Escherichia coli, UniProt P62593, Q37K); assay: as above; type: biochemical
Description: as §1, §2, §3, §4, §5

[3] = tested on: influenza viral neuraminidase, A/Georgia/17/2006 (WT); type: biochemical, influenza virus
[4] = tested on: 08/09 A/H1N1 influenza virus isolates; type: biochemical
[5] = tested on: 07/08 A/H1N1 influenza virus isolates; type: biochemical; conditions: for IC50: N 9 isolates
[6] = tested on: 08/09 A/H3N2 influenza virus isolates; type: biochemical
[7] = tested on: Type B influenza virus isolates; type: biochemical
[8] = tested on: 08/09 A/H1N1 influenza virus isolates; type: biochemical; conditions: N 104 isolates
[9] = tested on: 07/08 A/H1N1 influenza virus isolates; type: biochemical; conditions: N 9 isolates
[10] = tested on: 08/09 A/H3N2 influenza virus isolates; type: biochemical; conditions: N 35 isolates
[11] = tested on: Type B influenza virus isolates; type: biochemical; conditions: N 54 isolates
[12] = tested on: wild-type H1N1 influenza virus; conditions: normally; background statement; cited from earlier work
[13] = share of isolates, IC50 cutoff 50 nM

C[C@@H](O)[C@H]1C(=O)N2C(C(=O)O)=C(SCCN=CN)C[C@H]12 [Imipenem, imipenem]
R-Factor [1]: 2.50
S/N (Signal to Noise Ratio) in inhibitor-containing reagent mix (SHV-2 beta lactamase; 64 micrograms/mL in 2× mix, lysate dilution 1:10, 15 min): 11.00
resistance of the beta lactamase to the substance (SHV-2 beta lactamase; judged from R-Factor): modest resistance
R-Factor (p99 beta lactamase; 10×(Reagent Mix II÷Reagent Mix I signal), 64 micrograms/mL in 2× mix, lysate dilution 1:200): 0.21
S/N (Signal to Noise Ratio) in inhibitor-containing reagent mix (p99 beta lactamase; 64 micrograms/mL in 2× mix, lysate dilution 1:200, 15 min): 1.01
resistance of the beta lactamase to the substance (p99 beta lactamase; judged from R-Factor): no resistance
R-Factor ([2]; 64 micrograms/mL in 2× mix, lysate dilution 1:2): 6.02
S/N (Signal to Noise Ratio) in inhibitor-containing reagent mix ([2]; 64 micrograms/mL in 2× mix, lysate dilution 1:2, 15 min): 13.00
resistance of the beta lactamase to the substance ([2]; judged from R-Factor): strong resistance
R-Factor (TEM-2 beta lactamase; 64 micrograms/mL in 2× mix, lysate undiluted): 5.66
S/N (Signal to Noise Ratio) in inhibitor-containing reagent mix (TEM-2 beta lactamase; 64 micrograms/mL in 2× mix, lysate undiluted, 15 min): 24.00
resistance of the beta lactamase to the substance (TEM-2 beta lactamase; judged from R-Factor): strong resistance

CCC(CC)O[C@@H]1C=C(C(=O)O)C[C@H](N)[C@H]1NC(C)=O [oseltamivir carboxylate]
R-Factor Mean [3]: 0.27 and 0.32
R-Factor Rep 1 [3]: 0.28 and 0.30
R-Factor Rep 2 [3]: 0.27 and 0.35
R-Factor Rep 3 [3]: 0.26 and 0.30
IC50 ([4]; N 104 isolates): 245 nM
% Susceptible [4, 13]: 0%
IC50 ([5]; read-out: IC50 Mean): 2.64 nM
IC50 ([5]; read-out: IC50 Range): 1.8 to 7.26 nM
% Susceptible [5, 13]: 100%
IC50 ([6]; N 35 isolates): 1.55 nM
% Susceptible [6, 13]: 100%
IC50 ([7]; N 54 isolates): 18.7 nM
% Susceptible [7, 13]: 100%
R-Factor Value Range [8]: 3.75-6.02
R-Factor Value Mean ([8]; approximately 15 minutes at room temperature): 4.29
R-Factor Value Mean [9]: 0.23
R-Factor Value Range [9]: 0.05-0.38
R-Factor Value Mean [10]: 0.31
R-Factor Value Range [10]: 0.83-1.29
R-Factor Value Mean [11]: 0.74
R-Factor Value Range [11]: 0.42-1.67
IC50 [12]: < 5 nM
